Test results published in patent US20240174740A1.
Results are given in words; binding and its absence hold for the method and conditions named. Some binding calls cover weakened binding; strength is not graded here.

Sequences of proteins named here, by UniProt entry; tags and fusion partners are left off. Residues count along the entry.
UniProt P23467, residues 23-1534: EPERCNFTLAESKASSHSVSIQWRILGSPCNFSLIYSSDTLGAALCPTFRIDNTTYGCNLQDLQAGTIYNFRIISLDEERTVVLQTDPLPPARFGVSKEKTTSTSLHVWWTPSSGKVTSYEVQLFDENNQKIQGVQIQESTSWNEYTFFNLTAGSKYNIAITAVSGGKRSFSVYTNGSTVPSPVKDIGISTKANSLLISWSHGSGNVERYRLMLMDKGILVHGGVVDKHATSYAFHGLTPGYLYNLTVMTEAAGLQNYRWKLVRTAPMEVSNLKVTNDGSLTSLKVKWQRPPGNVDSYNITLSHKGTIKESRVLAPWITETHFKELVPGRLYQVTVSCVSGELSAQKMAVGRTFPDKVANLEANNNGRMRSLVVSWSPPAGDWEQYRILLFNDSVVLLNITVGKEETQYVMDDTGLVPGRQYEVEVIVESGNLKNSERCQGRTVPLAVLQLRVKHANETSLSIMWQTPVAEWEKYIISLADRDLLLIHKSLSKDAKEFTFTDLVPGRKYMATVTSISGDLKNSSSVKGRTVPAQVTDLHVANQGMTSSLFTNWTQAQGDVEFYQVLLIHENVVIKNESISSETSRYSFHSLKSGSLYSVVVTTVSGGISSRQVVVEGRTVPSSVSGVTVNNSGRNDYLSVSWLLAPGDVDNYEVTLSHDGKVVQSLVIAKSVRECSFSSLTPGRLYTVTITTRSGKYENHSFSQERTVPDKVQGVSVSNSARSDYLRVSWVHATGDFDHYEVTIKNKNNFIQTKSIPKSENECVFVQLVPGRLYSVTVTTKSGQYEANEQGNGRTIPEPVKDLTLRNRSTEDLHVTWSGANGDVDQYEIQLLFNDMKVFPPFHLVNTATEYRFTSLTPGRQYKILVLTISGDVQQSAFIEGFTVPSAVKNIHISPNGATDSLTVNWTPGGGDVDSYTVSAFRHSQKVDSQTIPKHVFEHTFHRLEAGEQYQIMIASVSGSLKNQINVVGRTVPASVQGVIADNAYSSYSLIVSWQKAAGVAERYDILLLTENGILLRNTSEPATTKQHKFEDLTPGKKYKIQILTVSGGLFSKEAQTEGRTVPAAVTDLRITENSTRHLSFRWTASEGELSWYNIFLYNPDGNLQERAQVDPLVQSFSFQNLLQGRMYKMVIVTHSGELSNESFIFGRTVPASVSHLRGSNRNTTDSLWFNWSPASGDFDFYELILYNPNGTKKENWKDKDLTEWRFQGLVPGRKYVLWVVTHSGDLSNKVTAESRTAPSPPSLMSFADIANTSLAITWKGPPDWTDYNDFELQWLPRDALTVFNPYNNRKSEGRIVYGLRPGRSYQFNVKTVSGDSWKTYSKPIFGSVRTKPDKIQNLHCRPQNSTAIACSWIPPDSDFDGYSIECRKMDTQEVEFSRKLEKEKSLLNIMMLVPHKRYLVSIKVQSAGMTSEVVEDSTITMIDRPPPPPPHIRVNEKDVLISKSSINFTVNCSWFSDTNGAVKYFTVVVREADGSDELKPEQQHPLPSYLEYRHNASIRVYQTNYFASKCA

Biological target: HPTP-β (VE-PTP) (human) (UniProt P23467)
Assay: ELISA on HPTP-β, absorbance against antibody concentration 0.05-1 ug/mL (control curve)

B1: HC2:LC1 (antibody, human IgG4 S228P, kappa, V domains shown)
VH: EVQLVESGGGLVQPGGSLRLSCAASGFTFNANAMNWVRQAPGKGLEWVGRIRTKSNNYATYYAGSVKDRFTISRDDSKNSLYLQMNSLKTEDTAVYYCVRDYYGSSAWITYWGQGTLVTVSS
VL: DVVMTQSPSFLSASVGDRVTITCKASQHVGTAVAWYQQRPGKAPKLLIYWASTRHTGVPSRFSGSGSGTEFTLTISSLQPEDFATYFCQQYSSYPFTFGGGTKLEIKR
binding: binds
